Laboratory results taken from article PMC8439062.
Results are given in words; binding and its absence hold for the method and conditions named. Binding seen in cells or lysates may run through a third protein. Some binding calls cover weakened binding; strength is not graded here. Tags and fused reporters may be left off the sequences shown.

Experiments:
[1] = biological target: T1, HA-MG53(C), C-terminal part of human MG53 (aa 246-477) with the PRY-SPRY domains (human) (UniProt Q6ZMU5); test: co-IP; HEK293 cells transfected with HA-MG53 (full length or deletion mutants) and Myc-DDK-tagged G3BP2 for 24 hr, MG132 (10 uM) for 16 hr; RIPA buffer lysate; IP with anti-HA magnetic beads, blot with anti-HA and anti-G3BP2
T1 sequence: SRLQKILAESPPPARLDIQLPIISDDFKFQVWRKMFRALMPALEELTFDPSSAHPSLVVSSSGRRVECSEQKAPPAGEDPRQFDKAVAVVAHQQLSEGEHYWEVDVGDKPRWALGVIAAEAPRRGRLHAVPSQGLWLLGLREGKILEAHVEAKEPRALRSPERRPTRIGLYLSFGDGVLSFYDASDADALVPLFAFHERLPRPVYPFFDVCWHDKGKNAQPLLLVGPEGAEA

[2] = biological target: T2, HA-MG53(N), N-terminal part of human MG53 (aa 1-269) with the TRIM domain (human) (UniProt Q6ZMU5); test: as above
T2 sequence: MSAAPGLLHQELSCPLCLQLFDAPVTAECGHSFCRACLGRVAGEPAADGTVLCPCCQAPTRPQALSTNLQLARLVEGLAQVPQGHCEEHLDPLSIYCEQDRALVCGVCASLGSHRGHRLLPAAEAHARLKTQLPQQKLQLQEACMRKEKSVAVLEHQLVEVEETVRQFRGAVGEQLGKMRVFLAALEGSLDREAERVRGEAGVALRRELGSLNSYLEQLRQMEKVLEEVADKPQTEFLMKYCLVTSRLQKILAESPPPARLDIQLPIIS

B1: Myc-DDK-tagged G3BP2 (Ras GTPase-activating protein-binding protein 2) (protein, UniProt Q9UN86 1-482)
chain: MVMEKPSPLLVGREFVRQYYTLLNKAPEYLHRFYGRNSSYVHGGVDASGKPQEAVYGQNDIHHKVLSLNFSECHTKIRHVDAHATLSDGVVVQVMGLLSNSGQPERKFMQTFVLAPEGSVPNKFYVHNDMFRYEDEVFGDSEPELDEESEDEVEEEQEERQPSPEPVQENANSGYYEAHPVTNGIEEPLEESSHEPEPEPESETKTEELKPQVEEKNLEELEEKSTTPPPAEPVSLPQEPPKAFSWASVTSKNLPPSGTVSSSGIPPHVKAPVSQPRVEAKPEVQSQPPRVREQRPRERPGFPPRGPRPGRGDMEQNDSDNRRIIRYPDSHQLFVGNLPHDIDENELKEFFMSFGNVVELRINTKGVGGKLPNFGFVVFDDSEPVQRILIAKPIMFRGEVRLNVEEKKTRAARERETRGGGDDRRDIRRNDRGPGGPRGIVGGGMMRDRDGRGPPPRGGMAQKLGSGRGTGQMEGRFTGQRR
- binding [1]: no binding
- binding [2]: binds
